According to patent publication US20240132511A1, “TREATMENTS OF PRADER-WILLI SYNDROME” (Neuren Pharmaceuticals Limited, priority 2021, published 2024):
At least one compound was matched to its structure with a doubt left.

What was measured:
[1] = test system: Magel2-null mice; experiment: Open Field hypoactivity (distance travelled, time spent active); assay type: in vivo, mouse; conditions: 100 mg/kg or 200 mg/kg, gavage once daily for 6 weeks
Excerpt: (§1) The mouse locus 7qB4/B5 (syntenic with the Prader-Willi region at chromosome position 15q11-q13 in humans) encompasses the cluster of paternally-expressed imprinted genes Magel2, Ndn, Mkrn3, and Peg12. As maternal imprinting silences the Magel2 allele, only the paternally inherited Magel2 allele is expressed. Heterozygous females were bred with wild-type males (or C57BL/6J inbred males) to maintain the line; as the resulting offspring will have no abnormal phenotype. To obtain “Magel2-null” offspring (both maternal and paternal Magel2 alleles are non-functional), wild-type females are bred with heterozygous males; allowing maternal transmission of the imprinted/silenced wild-type allele and paternal transmission of the Magel2-lacZ (null) allele. […]
(§2) In vivo experiments were conducted in C57BL/6-Magel2tm1Stw/J (Magel2-null) mice at age P60 and their wild-type littermates during the light phase (littermates that were wild-type for Magel2 were used as controls). […] In study 1: C57BL/6-Magel2tm1Stw/J (Magel2-null) mice were assessed on behavioral assays. […]
(§3) Testing was performed during the light phase of the circadian cycle, with the order of testing being determined by the principle of conducting the most stressful tests last. […]

[2] = test system: Magel2-null mice; experiment: Nest building quality; assay type: in vivo, mouse; conditions: 100 mg/kg and 200 mg/kg
Excerpt: as §1, §2, §3

[3] = test system: Magel2-null mice; experiment: Partition test of social preference; assay type: in vivo, mouse; conditions: 100 mg/kg or 200 mg/kg
Excerpt: as §1, §2, §3

[4] = test system: Magel2-null mice; experiment: Sniffing test of social interaction; assay type: in vivo, mouse; conditions: 100 mg/kg or 200 mg/kg
Excerpt: as §1, §2, §3

[5] = test system: Magel2-null mice; experiment: Novel Object Recognition (NOR); assay type: in vivo, mouse; conditions: 100 mg/kg or 200 mg/kg
Excerpt: as §1, §2, §3

[6] = test system: Magel2-null mice; experiment: Elevated Plus Maze (time in open arms); assay type: in vivo, mouse; conditions: 100 mg/kg or 200 mg/kg
Excerpt: as §1, §2, §3

[7] = test system: Magel2-null mice; experiment: Fat mass in female Magel2-null mice; assay type: in vivo, mouse
Experimental: (§4) In vivo experiments were conducted in C57BL/6-Magel2tm1Stw/J (Magel2-null) mice at age P60 and their wild-type littermates during the light phase (littermates that were wild-type for Magel2 were used as controls). Ten mice per treatment group were used for studies 1 and 2, and six mice per group for study 3. In study 1: C57BL/6-Magel2tm1Stw/J (Magel2-null) mice were assessed on behavioral assays. Study 2 tested the efficacy of cG-2-AllylP in treating obesity and insulin levels in Magel2-null mice. Study 3 tested the IGF-1 level in Magel2-null mice. Because human beings have the same genetic abnormality, studies of Magel2-null mice are reasonably predictive of effects of compounds of Formulas I, II, III and IV in human beings with Prader-Willi Syndrome.
(§5) Testing was performed during the light phase of the circadian cycle, with the order of testing being determined by the principle of conducting the most stressful tests last. Assays were designed to reproduce and expand on the original behavioral characterization of Magel2-null mice. Magel2-null and wild-type control mice were dosed once daily for 6 weeks prior to testing and tested 30 minutes following a dose of cG-2-AllylP (NNZ2591). Study groups and the treatment matrix are described in Table 2 below.
(§6) Prader-Willi Syndrome is associated with metabolic and hormonal abnormalities in humans. […]

[8] = test system: Magel2-null mice; experiment: Insulin levels in female Magel2-null mice; assay type: in vivo, mouse
Experimental: as §4, §5, §6
Insulin was measured for each group.

[9] = test system: Magel2-null mice; experiment: Circulating IGF-1 level in Magel2-null mice; assay type: in vivo, mouse
Experimental: as §4, §5
Prader-Willi Syndrome may be associated with altered IGF-1 levels in humans.

[10] = test system: subjects with Prader-Willi syndrome; experiment: Proposed randomized, double-blind placebo controlled study in subjects with Prader-Willi syndrome; assay type: in vivo, human; conditions: active vs placebo, 6 or 12 mg/kg twice daily, eighty-four days
Excerpt: For the proposed study thirty subjects with Prader-Willi syndrome are recruited. Subjects are females and males aged between 4 and 20 years (Mean=12.1 SD=4.4). All subjects have confirmed loss of function in the 15q11-q13 region on the paternal copy of chromosome 15 and also meet diagnostic criteria for Prader-Willi syndrome based on assessment of behavioral and somatic symptoms. The majority of subjects (72%) are being treated with rhGH at screening. Subjects are instructed that concomitant medications are to be stable for at least six weeks prior to study.
The study is a randomized, double-blind placebo controlled parallel study with subjects randomized 1:1:1 to placebo, 6 mg/kg or 12 mg/kg of Cyclo-L-Glycyl-L-2-Allylproline is to be administered as an oral liquid twice daily for eighty-four days.
Subjects are tested at baseline using the following instruments: the Hyperphagia Questionnaire for Clinical Trials (HQ-CT), the Clinical Global Impression of Severity (CGI-S), the Caregiver Global Impression of Change (CaGI-I), the Aberrant Behavior Checklist (ABC) and ABC Subscales, the Social Responsiveness Scale, the Repetitive Behavior Scale-Revised (RBS-R), the PWS Anxiety and Distress Questionnaire (PADQ) and the Children's Yale-Brown Obsessive-Compulsive Scale (CY-BOCS). In addition, the following measurements are made at baseline: Body Fat Assessment (BFA), fasting blood glucose, blood lipids (HDL, LDL, VLDL, triglycerides), serum IGF-1 (total, bound to IGF-1 Binding Protein-3 [IGFBP-3]), fasting insulin and the Homeostatic Model Assessment for Insulin Resistance (HOMA-IR).
The effect of treatment with Cyclo-L-Glycyl-L-2-Allylproline is analyzed by conducting a repeated analysis of covariance (ANCOVA) on change from baseline scores for each of the measures plus the Clinical Global Impression of Change (CGI-I). Safety is assessed using caregiver reports of adverse events, a panel of standard laboratory tests and electrocardiograms (ECG).

With `C=CCC12CCCN1C(=O)CNC2=O` [cG-2-AllylP, (8aS)-Allyl-hexahydropyrrolo[1,2-a]pyrazine-1,4-dione] the “Open Field distance travelled and time spent active, effect in words” value ([1]; Magel2-null mice) was “normalized the mild to moderate hypoactivity in Magel2-null mice”, the “Open Field distance travelled and time spent active, effect in words” value ([1]; WT mice) was “no effect on WT mice” and the “Nest building quality, effect in words” value ([2]; Magel2-null mice) was “normalized the abnormal nest building in the Magel2-null mice”. The “Nest building quality, effect in words” value ([2]; WT mice) was “no effect on WT mice”, the “Social preference (object versus familiar mouse), effect in words” value ([3]; Magel2-null mice) was “normalized this social behavior deficit in Magel2-null mice” and the “Social preference (object versus familiar mouse), effect in words” value ([3]; WT mice) was “no effect on WT mice”. For the same molecule, the “Social interaction (number of sniffing events), effect in words” value ([4]; Magel2-null mice) was “normalized this social behavior deficit in Magel2-null mice”, the “Social interaction (number of sniffing events), effect in words” value ([4]; WT mice) was “no effect on WT mice” and the “Novel object recognition (time spent with the novel object), effect in words” value ([5]; Magel2-null mice) was “normalized this cognitive deficit in Magel2-null mice”. The “Novel object recognition (time spent with the novel object), effect in words” value ([5]; WT mice) was “no effect on WT mice”, the “Elevated Plus Maze time spent in open arms, effect in words” value ([6]; Magel2-null mice) was “normalized this deficit in Magel2-null mice” and the “Elevated Plus Maze time spent in open arms, effect in words” value ([6]; WT mice) was “no effect on WT mice”. For the same molecule, the “Fat mass, effect in words” value ([7]; WT mice) was “no effect on WT mice”, the “Fat mass, effect in words” value ([7]; female Magel2-null mice, 200 mg/kg) was “normalized the fat mass in the Magel2-null mice” and the “Insulin level, effect in words” value ([8]; Magel2-null mice, 200 mg/kg) was “normalized the insulin level in the Magel2-null mice”. For the same molecule, the “Insulin level, effect in words” value ([8]; WT mice) was “no effect on WT mice”, the “Circulating IGF-1 levels, effect in words” value ([9]; Magel2-null mice, 200 mg/kg) was “normalized the circulating IGF-1 levels in the Magel2-null mice” and the “Circulating IGF-1 levels, effect in words” value ([9]; WT mice) was “no effect on WT mice”. The “BFA (Body Fat Assessment)” value [10] was “Trends toward reduction”, the “Change from baseline on CY-BOCS” value [10] was “Statistically significant difference in change from baseline” and the “Change from baseline on Prader-Willi Distress Questionnaire (PADQ)” value [10] was “Dose-dependent, statistically significant difference in change from baseline between active and placebo”. For the same molecule, the “Change from baseline on free IGF-1” value [10] was “Dose-dependent, statistically significant difference in change from baseline between active and placebo”, the Fasting blood glucose [10] was “Trends toward reduction” and the “Improvement as measured by CGI-I” value [10] was “Dose-dependent, statistically significant differences between active and placebo”.
